# PubChem BioAssay AID540256 (National Center for Advancing Translational Sciences (NCATS), 2011)
# Where “and” joins values, the source holds several entries; their conditions need not be identical. Equal entries are not always repeated. The whole screen tested about 300,000 compounds, of which about 3,700 (1.2%) were called active. Inconclusive means that the source gave no clear call. Such entries were picked first, then a sample of the others. Calls come from the whole dose curve; tested in HEK293 cells. Where the call is inconclusive, the potency comes from a doubtful curve fit.
# Assay: qHTS for Inhibitors of binding or entry into cells for Lassa Virus; note: nearly all actives have a fitted effect of over 50% in size
# Settings: Lassa virus pseudotype entry inhibition, cell reporter; activity change, negative = inhibition: at 37.9 µM (top of the series) unless noted
# % is set by controls: 0 for no effect and ±100 for the full control effect; potency is the fitted concentration of half-maximal effect.
Compound,Potency,"activity change, negative = inhibition"
CN(C(=O)C(C)(C)C)C1c2c(ccc3ccccc23)OCC1CO (stereo not given),"inconclusive: 3.16 µM [inhibitor, single point]",
Cn1nc(CC(=O)NCc2cccc3ccccc23)c2ccccc2c1=O,,inactive: -14%
CCOc1ccc(NC(=O)CCCc2cc(-c3ccc(OCC)cc3)on2)cc1,"inconclusive: 1.46 µM [inhibitor, full curve, poor fit]",
CCS(=O)(=O)N1CCC(C(=O)NCCC2=CCCCC2)CC1,,inactive: 22%
CCOC(=O)C1CCCN(C(=O)c2cc3c(C)nc4ccccc4c3o2)C1 (stereo not given),"inconclusive: 20.6 µM [inhibitor, single point]",
Nc1cccc2c1C(=O)N(CCOc1ccccc1F)C2=O,active: 2.82 µM,
CCCOC(=O)c1cc(-c2ccc(/C=C3/C(=O)N(C)C(=O)C(C#N)=C3C)o2)ccc1Cl,,inactive: 21.9%
O=C(COc1ncnc2scc(-c3ccc(F)cc3)c12)NCc1ccco1,,inactive: 8.75%
CCc1ccc(N(CC)C(=O)c2ccc3c(Cl)c4c(nc3c2)CCC4)cc1,"inconclusive: 23.1 µM [inhibitor, single point]",
O=C(CCSCc1cccc(Cl)c1)NCCc1ccc(Cl)cc1,"inconclusive: 35.5 µM [activator, single point]",
CC/C(=N\NC(=O)c1cccnc1)c1ccc2c(c1)OCCO2,,inactive: 0.687%
CCOC(=O)C1CCN(S(=O)(=O)c2ccc(OC)c(C(=O)N3CCCCCC3)c2)CC1,,inactive: 15.1%
CCOc1cc(-c2cc(-c3ccc(C)cc3)nc(N)c2C#N)ccc1O,"inconclusive: 23.1 µM [inhibitor, partial curve, poor fit]",
COc1ccc(CCn2c(-c3ccco3)nc3nc4ccccc4nc32)cc1,,inactive: -19.2%
Cc1cc2cc(C(c3nnnn3Cc3ccco3)N3CCc4ccccc4C3)c(=O)[nH]c2cc1C (stereo not given),"inconclusive: 35.5 µM [inhibitor, single point]",
CCCOc1ccc(CNC(=S)N/N=C/c2ccc([N+](=O)[O-])cc2)cc1,"inconclusive: 1.46 µM [inhibitor, full curve]",
COc1cc(CNCCc2c[nH]c3ccccc23)ccc1OCc1ccccc1F,"inconclusive: 32.6 µM [inhibitor, single point]",
Cc1cc(S(=O)(=O)NC(C)C)ccc1OCC(=O)N1CCN(Cc2ccc3c(c2)OCO3)CC1,active: 8.2 µM,
Cc1ccc(CN2CCN(CC3CC4C=CC3C4)CC2)cc1 (stereo not given),"inconclusive: 35.5 µM [inhibitor, single point]",
C/C(N)=C(/C#N)C(=O)COC(=O)C1Cc2ccccc2CN1S(C)(=O)=O (stereo not given),"inconclusive: 32.6 µM [inhibitor, partial curve, poor fit] and inconclusive: 35.5 µM [activator, partial curve, poor fit]",

# Sorted by length of the SMILES (descending): some entries from above
Compound,Potency,"activity change, negative = inhibition"
COc1ccc(CCn2c(-c3ccco3)nc3nc4ccccc4nc32)cc1,,inactive: -19.2%
Cn1nc(CC(=O)NCc2cccc3ccccc23)c2ccccc2c1=O,,inactive: -14%
Cc1ccc(CN2CCN(CC3CC4C=CC3C4)CC2)cc1 (stereo not given),"inconclusive: 35.5 µM [inhibitor, single point]",
